Results deposited as PubChem BioAssay AID1159584 (Peter MacCallum Cancer Centre, 2016)
This is an unselected part of about 18,000 reagents tested. The record does not give: the amount of reagent, the time to read-out.

Aim: 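Knock-downs that harm CDH1-null cells more than parental MCF10A cells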 (primary screen)
System: human MCF10A breast epithelial cells, parental and CDH1-null
Reagent: siRNA against human genes
Measurement: 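ATP luminescence (CellTiter-Glo) viability per line relative to mean mock wells over all plates, and the ratio of CDH1-null to parental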
Reading the numbers: CDH1-null / parental viability ratio: higher = CDH1-null cells survive relatively better than parental; CDH1-null viability vs mock: higher = more viable CDH1-null cells; parental viability vs mock: higher = more viable parental cells

gene symbol | PubChem SID | CDH1-null / parental viability ratio | CDH1-null viability vs mock (fraction of mock) | parental viability vs mock (fraction of mock)
KANK2 (KN motif and ankyrin repeat domains 2) | SID152149446 | 0.93 | 0.8 | 0.86
LZTS1 (leucine zipper tumor suppressor 1) | SID134324455 | 1.99 | 1.37 | 0.69
PEX3 (peroxisomal biogenesis factor 3) | SID134323326 | 1.07 | 0.77 | 0.72
PTPN5 (protein tyrosine phosphatase non-receptor type 5) | SID152153920 | 1.18 | 0.66 | 0.56
H3C15 (H3 clustered histone 15) | SID135625600 | 1.14 | 0.84 | 0.74
CABIN1 (calcineurin binding protein 1) | SID134316725 | 1.19 | 1.05 | 0.88
EIF3C (eukaryotic translation initiation factor 3 subunit C) | SID152155689 | 0.7 | 0.26 | 0.37
FIGNL1 (fidgetin like 1) | SID135623673 | 1.04 | 0.77 | 0.74
SUPT16H (SPT16 homolog, facilitates chromatin remodeling subunit) | SID134314249 | 1.06 | 0.83 | 0.78
ZNF622 (zinc finger protein 622) | SID134319167 | 1 | 1.09 | 1.09
RBPMS (RNA binding protein, mRNA processing factor) | SID152150009 | 1.25 | 0.5 | 0.4
RAD17 (RAD17 checkpoint clamp loader component) | SID56478634 | 1.15 | 0.92 | 0.8
GRIN3A (glutamate ionotropic receptor NMDA type subunit 3A) | SID134311618 | 1.27 | 0.9 | 0.71
CCR3 (C-C motif chemokine receptor 3) | SID134310901 | 0.87 | 0.82 | 0.94
AKNA (AT-hook transcription factor) | SID152154629 | 1.02 | 0.62 | 0.61
GABBR2 (gamma-aminobutyric acid type B receptor subunit 2) | SID134311021 | 0.7 | 0.57 | 0.82
TMEM94 (transmembrane protein 94) | SID152148102 | 1.83 | 0.44 | 0.24
RIPOR1 (RHO family interacting cell polarization regulator 1) | SID134318515 | 0.94 | 0.68 | 0.72
TEX47 (testis expressed 47) | SID134321033 | 1.34 | 0.86 | 0.64
TSPYL4 (TSPY like 4) | SID134321879 | 0.99 | 0.81 | 0.82
OR51E2 (olfactory receptor family 51 subfamily E member 2) | SID134313628 | 1.09 | 0.7 | 0.64
VMA21 (vacuolar ATPase assembly factor VMA21) | SID152149784 | 1.49 | 1.04 | 0.7
ZNF605 (zinc finger protein 605) | SID152149874 | 1.26 | 0.92 | 0.73
LHFPL6 (LHFPL tetraspan subfamily member 6) | SID152154705 | 1.12 | 0.72 | 0.64
HAVCR1 (hepatitis A virus cellular receptor 1) | SID135623853 | 1.38 | 1.5 | 1.09
OR1J4 (olfactory receptor family 1 subfamily J member 4) | SID152156191 | 0.67 | 0.68 | 1.01
P2RY14 (purinergic receptor P2Y14) | SID152149899 | 1.19 | 0.86 | 0.72
TOP2A (DNA topoisomerase II alpha) | SID152154743 | 1.09 | 0.48 | 0.44
ARGFX (arginine-fifty homeobox) | SID135625388 | 0.7 | 0.35 | 0.5
STMN1 (stathmin 1) | SID135620943 | 1.02 | 1 | 0.98
FAM114A2 (family with sequence similarity 114 member A2) | SID152155335 | 0.84 | 0.82 | 0.98
CFAP141 (cilia and flagella associated protein 141) | SID135624714 | 0.94 | 0.64 | 0.68
LURAP1 (leucine rich adaptor protein 1) | SID135625393 | 1.07 | 0.9 | 0.84
RBBP4 (RB binding protein 4, chromatin remodeling factor) | SID134316429 | 1.02 | 0.84 | 0.82
CSNK2A1 (casein kinase 2 alpha 1) | SID135620685 | 0.59 | 0.6 | 1.01
KLF17 (KLF transcription factor 17) | SID152156310 | 1.29 | 1.03 | 0.8
MARCO (macrophage receptor with collagenous structure) | SID152149055 | 0.93 | 0.84 | 0.9
ANXA7 (annexin A7) | SID134315251 | 1.25 | 0.84 | 0.67
RGCC (regulator of cell cycle) | SID152150660 | 0.88 | 0.5 | 0.57
SLC66A3 | SID152153363 | 0.92 | 0.66 | 0.72
ANK2 (ankyrin 2) | SID152150031 | 1.22 | 0.98 | 0.8
TOX4 (TOX high mobility group box family member 4) | SID135624154 | 1.08 | 0.7 | 0.65
DLG5 (discs large MAGUK scaffold protein 5) | SID135621585 | 0.84 | 0.81 | 0.96
ATP6V1H (ATPase H+ transporting V1 subunit H) | SID135622018 | 1.02 | 0.82 | 0.8
TSPAN16 (tetraspanin 16) | SID152150430 | 0.95 | 0.9 | 0.95
CACNA1C (calcium voltage-gated channel subunit alpha1 C) | SID152154827 | 1.09 | 0.88 | 0.81

Only “CDH1-null / parental viability ratio” (4 entries from above):
ANXA7 (annexin A7) [SID134315251]: 1.25
RGCC (regulator of cell cycle) [SID152150660]: 0.88
SLC66A3 [SID152153363]: 0.92
ANK2 (ankyrin 2) [SID152150031]: 1.22
